test: Corrosion bubble cell test (Linear Polarization Resistance); details: 2 ppm with 1% 2ME synergist; CO2-saturated brine/hydrocarbon, 80° C.; three hours baseline (Tables 8, 9)
Method: (§1) Cationic polymer salts were evaluated for corrosion performance as compared to a C12-C18 alkyl dimethyl benzyl ammonium chloride via a bubble test procedure. The bubble test simulates low flow areas where little or no mixing of water and oil occurs. The test was conducted using brine (80% of the brine being 3% sodium chloride brine and 20% of the brine being a hydrocarbon containing 75% LVT-200 kerosene oil and 25% xylene). The brine was placed into kettles and purged with carbon dioxide. The brine was continually purged with carbon dioxide to saturate the brine prior to starting the test. After the test began, the test cell was blanketed with carbon dioxide one hour prior to electrode insertion and through the duration of the test to maintain saturation. The kettles were stirred at 150 revolutions per minute (rpm) for the duration of the test to maintain thermal equilibrium at 80° C. The corrosion rate was measured by Linear Polarization Resistance (LPR) techniques. The working electrode used was carbon steel. The counter and reference electrodes were both 1018 carbon steel. The electrodes were all cleaned and polished prior to testing. Data were collected for three hours before 20 ppm of each of the compositions (containing 2 ppm of each of various pentaquaternary cationic polymer salts or the comparative C12-C18 alkyl dimethyl benzyl ammonium chloride and 1% 2-mercaptoethanol (2ME) as synergist in an organic solvent) was dosed into its respective cell. Data were collected overnight. A low concentration of the compositions was used to differentiate between the compositions.
Corrosion bubble cell tests were performed according to the method of Example A1 to evaluate a hexaquaternary cationic polymer salt for corrosion performance as compared to a C12-C18 alkyl dimethyl benzyl ammonium chloride. Data were collected for three hours before 20 ppm of each of the compositions (containing 2 ppm of a hexaquaternary cationic polymer salt or the comparative C12-C18 alkyl dimethyl benzyl ammonium chloride and 1% 2ME as synergist in an organic solvent) was dosed into its respective cell. Data were collected overnight. A low concentration of the compositions was used to differentiate between the compositions.
as §1, with “Data were collected for three hours before 20 ppm of each of the compositions (containing 2 ppm of each of various pentaquaternary cationic polymer salts or the comparative C12-C18 alkyl dimethyl benzyl ammonium chloride and 1% 2-mercaptoethanol (2ME) as synergist in an organic solvent) was dosed into its respective cell. Data were collected overnight. A low concentration of the compositions was used to differentiate between the compositions.” left out

In order of falling “Inhibited Corrosion Rate 15 h After Cationic Polymer Salt or Compound Addition” value:
1. CCCCCCCCCCCCCCCCCC[N+](C)(C)CC(O)CN(CCN(CC(O)C[N+](C)(C)CCCCCCCCCCCCCCCCCC)CC(O)C[N+](C)(C)CCCCCCCCCCCCCCCCCC)CCN(CC(O)C[N+](C)(C)CCCCCCCCCCCCCCCCCC)CC(O)C[N+](C)(C)CCCCCCCCCCCCCCCCCC.[Cl-].[Cl-].[Cl-].[Cl-].[Cl-] (centres unmarked) [Compound 12]  115 mpy
2. CCCCCCCCCCCCCCCCCC[N+](C)(C)CC(O)CN(CCN(CCN(CC(O)C[N+](C)(C)CCCCCCCCCCCCCCCCCC)CC(O)C[N+](C)(C)CCCCCCCCCCCCCCCCCC)CC(O)C[N+](C)(C)CCCCCCCCCCCCCCCCCC)CCN(CC(O)C[N+](C)(C)CCCCCCCCCCCCCCCCCC)CC(O)C[N+](C)(C)CCCCCCCCCCCCCCCCCC.[Cl-].[Cl-].[Cl-].[Cl-].[Cl-].[Cl-] (centres unmarked) [Compound 13]  114 mpy
3. CCCCCCCCCCCCCCCCCC[N+](C)(C)CC(O)CN(CCN(CCN(CC(O)C[N+](C)(C)C)CC(O)C[N+](C)(C)C)CC(O)C[N+](C)(C)C)CC(O)C[N+](C)(C)C.[Cl-].[Cl-].[Cl-].[Cl-].[Cl-] (centres unmarked) [Compound 7]  90 mpy
4. CCCCCCCCCCCCCCCCCC[N+](C)(C)CC(O)CN(CCN(CCN(CC(O)C[N+](C)(C)C)CC(O)C[N+](C)(C)CCCCCCCCCCCCCCCCCC)CC(O)C[N+](C)(C)C)CC(O)C[N+](C)(C)C.[Cl-].[Cl-].[Cl-].[Cl-].[Cl-] (centres unmarked) [Compound 9]  90 mpy
5. CCCCCCCCCCCCCCCCCC[N+](C)(C)CC(O)CN(CCN(CCN(CC(O)C[N+](C)(C)CCCCCCCCCCCCCCCCCC)CC(O)C[N+](C)(C)CCCCCCCCCCCCCCCCCC)CC(O)C[N+](C)(C)C)CC(O)C[N+](C)(C)CCCCCCCCCCCCCCCCCC.[Cl-].[Cl-].[Cl-].[Cl-].[Cl-] (centres unmarked) [Compound 11]  55 mpy

— patent US10899910B2, “Quaternary cationic polymers” (ECOLAB USA, INC., priority 2016, dated 2021)
